The test system of the data set is B16 melanoma cells derived from a mouse. Nature of the data set: Restraint of melanin production in cultured B16 melanoma cells. As to conditions: sample concentrations 1×10^-4 to 3×10^-4 %.

On to `CC(=O)CCC=C(C)CCC=C(C)CCC=C(C)CCC=C(C)C` [teprenone, geranylgeranylacetone], for which the amount of mitochondria entry is on record as “tended to increase” and the “amount of proteins in the B16 melanoma cells” value is listed as “did not change”.

The values are drawn from patent US5560907A, “Whitening embellisher” (Eisai Co., Ltd., priority 1992, dated 1996).
